These are yes or no findings as the source states them, for the method shown. A result given as binding can be weak or reduced; the word gives no strength.
Target: LOV domain of White Collar 1 (WC-1) bound to the Gal4 DNA binding domain (Neurospora crassa) (UniProt Q01371)
Test: two-hybrid; FUN-LOV switch in S. cerevisiae; destabilized firefly luciferase reporter under P_(GAL1) or P_(5XGAL1); luminescence of living cells normalised by OD600; constant white light (100 µmol m^-2 s^-1) or constant blue light (20 µmol m^-2 s^-1), 30°C; fold induction against the average background in constant darkness

Protein sequences, listed by entry. Tags and fused reporters are not part of them. Lines headed by an entry give the natural chain unless they say otherwise; changes in a name come on top. Chains listed by the source or under a name are the forms on record and can include a tag or linker.
UniProt Q01371: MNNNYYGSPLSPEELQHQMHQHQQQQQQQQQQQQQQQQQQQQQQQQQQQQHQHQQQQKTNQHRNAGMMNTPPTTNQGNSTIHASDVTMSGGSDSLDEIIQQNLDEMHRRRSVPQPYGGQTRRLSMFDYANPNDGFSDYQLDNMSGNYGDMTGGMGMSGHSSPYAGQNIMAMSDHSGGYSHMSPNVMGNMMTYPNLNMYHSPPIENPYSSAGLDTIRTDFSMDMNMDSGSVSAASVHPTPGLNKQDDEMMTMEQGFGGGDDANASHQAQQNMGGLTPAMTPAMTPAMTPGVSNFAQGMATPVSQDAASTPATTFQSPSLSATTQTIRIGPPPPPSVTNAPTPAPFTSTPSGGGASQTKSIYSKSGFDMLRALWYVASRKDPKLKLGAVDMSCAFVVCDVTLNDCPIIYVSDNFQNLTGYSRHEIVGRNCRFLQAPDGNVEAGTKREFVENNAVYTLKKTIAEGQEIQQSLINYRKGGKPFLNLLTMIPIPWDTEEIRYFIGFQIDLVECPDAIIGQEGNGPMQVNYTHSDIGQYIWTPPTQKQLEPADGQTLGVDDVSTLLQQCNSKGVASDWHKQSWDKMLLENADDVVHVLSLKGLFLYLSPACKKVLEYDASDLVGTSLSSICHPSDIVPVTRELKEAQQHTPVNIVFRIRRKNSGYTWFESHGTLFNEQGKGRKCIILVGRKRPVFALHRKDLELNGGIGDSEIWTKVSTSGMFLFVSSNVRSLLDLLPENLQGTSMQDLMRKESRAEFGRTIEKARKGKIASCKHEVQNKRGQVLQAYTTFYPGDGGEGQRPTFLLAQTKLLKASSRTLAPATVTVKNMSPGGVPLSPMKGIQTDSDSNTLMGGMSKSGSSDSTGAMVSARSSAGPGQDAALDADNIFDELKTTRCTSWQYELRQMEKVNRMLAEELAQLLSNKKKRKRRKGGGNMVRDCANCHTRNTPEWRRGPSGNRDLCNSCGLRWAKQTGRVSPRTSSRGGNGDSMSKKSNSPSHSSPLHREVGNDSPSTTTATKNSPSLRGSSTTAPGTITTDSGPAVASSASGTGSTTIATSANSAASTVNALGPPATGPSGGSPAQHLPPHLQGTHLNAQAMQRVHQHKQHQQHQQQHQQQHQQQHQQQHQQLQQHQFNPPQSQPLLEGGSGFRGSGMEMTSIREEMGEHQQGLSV
full-length VIVID (VVD) tethered to the Gal4 transactivation domain (Q9C3Y6, form named): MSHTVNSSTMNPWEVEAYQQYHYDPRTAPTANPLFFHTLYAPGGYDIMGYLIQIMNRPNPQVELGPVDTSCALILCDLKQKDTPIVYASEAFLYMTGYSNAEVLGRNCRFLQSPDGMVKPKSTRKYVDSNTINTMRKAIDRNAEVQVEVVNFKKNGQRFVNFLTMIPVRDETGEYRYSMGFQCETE

binding: binds
Substance: full-length VIVID (VVD) tethered to the Gal4 transactivation domain (from UniProt Q9C3Y6 1-186)
